Measurements as given in patent publication US20240082398A1, “METHODS OF PREPARING AND EXPANDING TYPE I INNATE LYMPHOID CELLS AND THERAPEUTIC USES THEREOF” (City of Hope, priority 2021, published 2024).

System: mouse LSCs
Test: RNA-seq of LSCs after ILC1 co-culture or IFN-γ treatment
Assay type: cell-based
Details: vs LSC alone, 3 days
Description: For mouse ILC1 RNA-sequencing, mouse ILC1s were sorted from the liver of normal mice or mice with AML using BD FACSAria™ Fusion. […] Total RNA was isolated from ILC1s or LSCs using a miRNeasy mini kit (QIAGEN). PolyA RNA-seq was performed in the Integrative Genomics Core of City of Hope National Medical Center. SMART-Seq® Ultra Low Input RNA Kit for Sequencing-v4 (Takara Bio) was used for getting double-strand cDNA from each sample with 2 ng of input total RNA. The resulting cDNA was sheared using a Covaris LE220 sonicator. The sheared DNA was used for to prepare a sequencing library, using a KAPA HyperPrep Kit. The final libraries were quantified using the Qubit Assay Kit (Thermo Fisher Scientific) and Bioanalyzer (Agilent). Sequencing was performed using the single-read mode of 51 cycles of read1 and 7 cycles of index read with V4 reagents on a Hiseq 2500 system (Illumina). Real-time analysis (RTA) 2.2.38 software was used to process the image analysis and base calling.
2,000 mouse LSCs were co-cultured with 1,000 ILC1s or treated with 1 ng/ml IFN-γ for 3 days, and then the LSCs were sorted using BD FACSAria Fusion. Total RNA of LSCs were isolated using miRNeasy mini kit (QIAGEN). […] The final libraries were quantified with qubit and bioanalyzer. The sequencing was performed with the single read mode of 51 cycles of read1 and 7 cycles of index read with V4 reagents on Hiseq2500. […]

Substance: recombinant murine IFN-γ: animal-free recombinant murine IFN-γ cytokine
- significantly downregulated LSC genes: 82 genes
- significantly upregulated LSC genes: 320 genes
